PubChem BioAssay AID720505, Drosophila RNAi Screening Center, 2013

Aim: 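Fly regulators or components of the CRAC channel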 (primary screen)
Cells: Drosophila S2R+ cells
Knock-down reagent: long dsRNA against Drosophila genes
Challenge: thapsigargin (2 µM) in calcium-free buffer to empty internal stores, then 2 mM calcium added back
Measured: 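Fluo-4 signal in 384-well plates read on a FLIPR after thapsigargin (2 µM, calcium-free) store depletion and 2 mM calcium add-back; unnormalised mean endpoint per well; screen run twice, selected wells retested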
Reading the numbers: calcium signal and retest calcium signal: higher = more calcium entry after store depletion
Rule for the call: 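About 1500 genes called as lowering calcium entry, by varying amounts, judged against per-plate control wells with STIM1 as positive and Rho1 as negative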
Meaning of the calls: active = called as lowering calcium entry; inactive = not called
The deposit covers about 20,000 reagents; shown is an unselected part of those that have a named target and a result. Over the whole deposit, about 2,100 (10%) got an active call. 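Raw plate signals without normalisation; calls rest on control-based scores that were not deposited; replicate 2 separates called from uncalled poorly.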 The numbers tell different reagents against one gene apart. Names joined by + are all predicted targets of the reagent. Not stated in the record: the amount of reagent, the time to read-out.

| gene | dsRNA no. | calcium signal, replicate 1 | calcium signal, replicate 2 | retest calcium signal, replicate 1 | retest calcium signal, replicate 2 | Outcome |
| --- | --- | --- | --- | --- | --- | --- |
| CG32536 + CG32537 | 1 | 121 | 103 | 7201 | 161 | inactive |
| CG7443 | 1 | 123 | 111 | – | – | inactive |
| thw (thawb) | 1 | 45.4 | 170 | – | – | active |
| CG5707 | 1 | 113 | 136 | – | – | inactive |
| Dbp21E2 (DEAD box protein 21E2) | 1 | 153 | 233 | – | – | inactive |
| Nepl9 (Neprilysin-like 9) | 1 | 95.9 | 127 | – | – | inactive |
| CG14811 | 1 | 118 | 184 | – | – | inactive |
| CG13314 | 1 | 156 | 114 | – | – | inactive |
| Spf30 (Splicing factor 30) | 1 | 99.1 | 187 | – | – | inactive |
| Atg101 (Autophagy-related 101) | 1 | 150 | 121 | – | – | inactive |
| Mcad (Medium-chain acyl-CoA dehydrogenase) | 1 | 54 | 70.7 | – | – | active |
| CG12056 | 1 | 146 | 132 | – | – | inactive |
| CG6282 | 1 | 114 | 124 | – | – | inactive |
| PH4alphaNE2 (prolyl-4-hydroxylase-alpha NE2) | 1 | 138 | 143 | – | – | inactive |
| CG8746 | 1 | 125 | 184 | – | – | inactive |
| Vta1 (Vesicle trafficking 1) | 1 | 62.9 | 76 | 74.5 | 91.1 | inactive |
| Vta1 (Vesicle trafficking 1) | 2 | 96.1 | 99.6 | – | – | inactive |
| CG13955 | 1 | 141 | 99.2 | – | – | inactive |
| Ugt304A1 (UDP-glycosyltransferase family 304 member A1) | 1 | 84.9 | 74.7 | – | – | inactive |
| CG14696 | 1 | 182 | 80.3 | – | – | inactive |
| arr (arrow) | 1 | 147 | 142 | – | – | inactive |
| CG30222 | 1 | 137 | 82.8 | – | – | inactive |
| CG30222 | 2 | 163 | 90.2 | – | – | inactive |
| CG30357 | 1 | 143 | 222 | – | – | inactive |
| fd19B (forkhead domain 19B) | 1 | 77 | 183 | 105 | 102 | active |
| CG34232 | 1 | 82.6 | 101 | – | – | inactive |
| RpS27A (Ribosomal protein S27A) | 1 | 183 | 140 | – | – | inactive |
| CG16815 | 1 | 101 | 145 | – | – | inactive |
| Jon25Biii (Jonah 25Biii) | 1 | 125 | 108 | – | – | inactive |
| Nrt (Neurotactin) | 1 | 128 | 98.8 | – | – | inactive |
| CG30377 | 1 | 194 | 155 | – | – | inactive |
| CG30377 | 2 | 129 | 116 | – | – | inactive |
| phr6-4 ((6-4)-photolyase) | 1 | 205 | 135 | – | – | inactive |
| CR33013 (pseudo) | 1 | 150 | 223 | – | – | inactive |
| CG42597 | 1 | 89.8 | 5414 | – | – | inactive |
| Nab2 (Nuclear polyadenosine RNA-binding 2) | 1 | 160 | 255 | – | – | inactive |
| CG31064 | 1 | 157 | 153 | – | – | inactive |
| CG31064 | 2 | 153 | 158 | – | – | inactive |
| CG31064 | 3 | 174 | 125 | – | – | inactive |
| CG31064 | 4 | 168 | 139 | – | – | inactive |
| Su(var)2-HP2 | 1 | 174 | 152 | – | – | inactive |
| CG6357 | 1 | 237 | 146 | – | – | inactive |
| CG31098 | 1 | 218 | 84.3 | – | – | inactive |
| CG16952 | 1 | 106 | 121 | – | – | inactive |
| CG4730 | 1 | 220 | 115 | – | – | inactive |
| Ptp69D (Protein tyrosine phosphatase 69D) | 1 | 97.1 | 70.9 | – | – | inactive |
| CG15258 | 1 | 145 | 97.2 | – | – | inactive |
| Atx2 (Ataxin-2) | 1 | 75.5 | 87.2 | – | – | active |
| Atx2 (Ataxin-2) | 2 | 132 | 109 | – | – | inactive |
| CG18558 | 1 | 205 | 127 | – | – | inactive |
| CG18558 | 2 | 139 | 96.5 | – | – | inactive |
| tilB (touch insensitive larva B) | 1 | 109 | 109 | – | – | inactive |
| CG43397 + CG12902 | 1 | 124 | 125 | – | – | inactive |
| Fa2h (Fatty acid 2-hydroxylase) | 1 | 149 | 172 | – | – | inactive |
| Fa2h (Fatty acid 2-hydroxylase) | 2 | 124 | 186 | – | – | inactive |
| CG3246 | 1 | 161 | 140 | – | – | inactive |
| RpL35A (Ribosomal protein L35A) | 1 | 122 | 99.9 | – | – | inactive |
| CG11566 (retired record) + stg1 | 1 | 178 | 83.5 | – | – | inactive |
| CG11566 (retired record) + stg1 | 2 | 153 | 96.7 | – | – | inactive |
| CG11566 (retired record) + stg1 | 3 | 68.2 | 151 | – | – | active |
| CG11566 (retired record) + stg1 | 4 | 144 | 85.1 | – | – | inactive |
| vari (varicose) | 1 | 173 | 103 | – | – | inactive |
| CG31465 | 1 | 124 | 170 | – | – | inactive |
| asRNA:CR31845 (antisense RNA:CR31845) | 1 | 129 | 140 | – | – | inactive |
| asRNA:CR31845 (antisense RNA:CR31845) | 2 | 65.7 | 93.2 | – | – | inactive |
| CG14605 | 1 | 126 | 171 | – | – | inactive |
| CG11106 | 1 | 108 | 100 | – | – | inactive |
| igl (igloo) | 1 | 98.3 | 108 | – | – | inactive |
| CG33124 | 1 | 143 | 139 | – | – | inactive |
| Tango14 (Transport and Golgi organization 14) | 1 | 214 | 140 | – | – | inactive |
| SuUR (Suppressor of Under-Replication) | 1 | 147 | 148 | – | – | inactive |
| RfC3 (Replication factor C subunit 3) | 1 | 165 | 139 | – | – | inactive |
| Gal (beta galactosidase) | 1 | 153 | 88.4 | – | – | inactive |
| CG9988 | 1 | 166 | 202 | – | – | inactive |
| EbpII (Ejaculatory bulb protein II) | 1 | 150 | 76.1 | – | – | inactive |
| EbpII (Ejaculatory bulb protein II) | 2 | 145 | 220 | – | – | inactive |
| CG33232 (retired record) | 1 | 137 | 80.6 | – | – | inactive |
| CG33232 (retired record) | 2 | 74.3 | 60 | – | – | inactive |
| Mipp1 (Multiple inositol polyphosphate phosphatase 1) | 1 | 103 | 106 | – | – | inactive |
| CG3342 | 1 | 100 | 118 | – | – | inactive |
| Tsp3A (Tetraspanin 3A) | 1 | 96.9 | 130 | – | – | inactive |
| CG8952 | 1 | 109 | 132 | – | – | inactive |
| Sod3 (Superoxide dismutase 3) | 1 | 166 | 120 | – | – | inactive |

Hits, among the entries above:
| gene | dsRNA no. | calcium signal, replicate 1 | calcium signal, replicate 2 | retest calcium signal, replicate 1 | retest calcium signal, replicate 2 | Outcome |
| --- | --- | --- | --- | --- | --- | --- |
| thw (thawb) | 1 | 45.4 | 170 | – | – | active |
| Mcad (Medium-chain acyl-CoA dehydrogenase) | 1 | 54 | 70.7 | – | – | active |
| fd19B (forkhead domain 19B) | 1 | 77 | 183 | 105 | 102 | active |
| Atx2 (Ataxin-2) | 1 | 75.5 | 87.2 | – | – | active |
| CG11566 (retired record) + stg1 | 3 | 68.2 | 151 | – | – | active |
